Measurements: patent US20230203100A1 (Pep2Tango Therapeutics Inc., priority 2021, published 2023)

Experiment: general procedure: Fmoc solid-phase peptide synthesis; polystyrene or PEG based resins; TentaGel RAM resin (0.18 mmol/g) for Peptide No. 12
Details: whole synthesis, analytical reverse-phase HPLC (Dionex UltiMate 3000), acetate salt

Compared with “(d)YAEGTFTSDYSIALDKIAQQAFVQWLLAGGPSCNTATCVLGRLSQELHRLQTYPRTNTGK*-N-T-Y-NH2”, “Y-(d)AEGTFTSDYSIALDKIAQQAFVQWLLAGGPSCNTATCVLGRLSQELHRLQTYPRTNTGK*-N-T-Y-NH2” is lower in “final HPLC purity” value: 88.5% for the first, 83.6% for the second.

In the case of “Y-Aib-E-G-T-F-T-S-D-Y-S-I-Aib-L-D-K-I-A-Q-K*-AFVQWLLAGGPSCNTATCATQRLANFLVHSSNNFGPILPPTNVGSNTY-NH2”, the “final HPLC purity” value is reported as 98.7%.

Experiment: Fmoc solid-phase peptide synthesis; polystyrene or PEG based resins; TentaGel RAM resin (0.18 mmol/g) for Peptide No. 12
Details: whole synthesis, analytical reverse-phase HPLC (Dionex UltiMate 3000), acetate salt

Compared with “(d)YAEGTFTSDYSIQLDKIAQQAFVQWLLAGGPSCNTATCVLGRLSQELHRLQTYPRTNTGK*-N-T-Y-NH2”, “(d)YAEGTFTSDYSIQLDKIAQQAFVQWLLAGSGCN-TA-TCATQRLANFLVHSSNNFGPILPPTNVGK*-N-T-Y-NH2” is higher in “final HPLC purity” value: 89.9% for the first, 91.7% for the second.

With “(d)YAEGTFTSDYSIQLDKIAQQAFVQWLLAGSGCN-TA-TCVLGRLSQELHRLQTYPRTNTGK*-N-T-Y-NH2” the “final HPLC purity” value was 82.8%.
